The list does not hold the whole screen: its compounds were picked by chemical class. Other doses and runs of a compound may be missing. T/C: endpoint of the treated group in % of that of the vehicle group. For survival time, the PubChem record calls one and a half times the control and up active, and a quarter to a half above the control has no call in these data; cut-offs in other NCI protocols can differ. Some T/C values are marked as having no survivor count here; that says nothing about deaths at the dose. Schedules are NCI's codes, read here as Q, the interval in days (D) or hours (H), X, the number of doses. Some schedule codes hold Z or #, which are not explained here. Marks such as (2×) stand for listed records that agree. Some entries were tested several times; the results are listed from low to high.

In this test the test system is BDF1 mice, L1210 Methyl-GAG-resistant leukemia, survival T/C. Briefly: NCI In Vivo Anticancer Drug Screen. Data for tumor model L1210 Leukemia resistant to Methyl-GAG; NSC 32946 (subcutaneous) in B6D2F1 (BDF1) mice. Conditions: T/C endpoint: mean survival time, schedule: Q01DX Z (ip), higher T/C = longer survival. As to the method:
The antitumor activity of compounds was measured in mice bearing transplantable tumors. Survival or tumor size were measured and the results are expressed as the measurement made in the treated group (T) divided by the measurement made in the vehicle treated control group (C). The tumor model used in this assay is L1210 Leukemia resistant to Methyl-GAG; NSC 32946 (subcutaneous) in B6D2F1 (BDF1) mice

Setting [1] is: dose: 1.25 mg/kg/injection, vehicle: carboxymethylcellulose (CMC).
Where [2] appears, read: dose: 2.5 mg/kg/injection, vehicle: carboxymethylcellulose (CMC).
Where [3] appears, read: dose: 5.0 mg/kg/injection, vehicle: carboxymethylcellulose (CMC).
Setting [4] is: dose: 10.0 mg/kg/injection, vehicle: carboxymethylcellulose (CMC).

Take `ClCCNCCCl`: the T/C reads like this: (dose: 3.12 mg/kg/injection, vehicle: carboxymethylcellulose (CMC)) 101 % of control [survivor count not shown]; (dose: 6.25 mg/kg/injection, vehicle: carboxymethylcellulose (CMC)) 111 % of control [survivor count not shown]; (dose: 12.5 mg/kg/injection, vehicle: carboxymethylcellulose (CMC)) 103 % of control [survivor count not shown]; (dose: 25.0 mg/kg/injection, vehicle: carboxymethylcellulose (CMC)) 111 % of control [survivor count not shown]; (dose: 50.0 mg/kg/injection, vehicle: carboxymethylcellulose (CMC)) 97 % of control [survivor count not shown].
Take `NC(Cc1cccc(N(CCCl)CCCl)c1)C(=O)O` (stereo not drawn): the T/C runs as follows: (dose: 0.31 mg/kg/injection, vehicle: carboxymethylcellulose (CMC)) 95 % of control [survivor count not shown]; (dose: 0.63 mg/kg/injection, vehicle: carboxymethylcellulose (CMC)) 100 % of control [survivor count not shown]; under setting [1], 103 % of control [survivor count not shown] (2×); under setting [2], 93 [survivor count not shown], 124 [survivor count not shown], 126 % of control [survivor count not shown]; under setting [3], 93 [survivor count not shown] and 103 % of control [survivor count not shown].
In the case of `O=C(O)CN(CCCl)CCCl`, the T/C runs as follows: (dose: 0.5 mg/kg/injection, vehicle: saline) 94 % of control [survivor count not shown]; (dose: 1.0 mg/kg/injection, vehicle: saline) 96 % of control [survivor count not shown]; (dose: 2.0 mg/kg/injection, vehicle: saline) 91 % of control [survivor count not shown]; (dose: 4.0 mg/kg/injection, vehicle: saline) 94 % of control [survivor count not shown].
For the compound `CC(C(=O)O)N(CCCl)CCCl` (stereo not drawn), the T/C is, setting by setting: under setting [1], 89 % of control [survivor count not shown]; under setting [2], 92 % of control [survivor count not shown]; under setting [3], 111 % of control [survivor count not shown]; under setting [4], 91 [survivor count not shown] and 93 % of control [survivor count not shown].
Turning to `NC(Cc1ccccc1N(CCCl)CCCl)C(=O)O` (stereo not drawn), the T/C by setting is: (dose: 0.25 mg/kg/injection, vehicle: carboxymethylcellulose (CMC)) 95 % of control [survivor count not shown]; (dose: 0.5 mg/kg/injection, vehicle: carboxymethylcellulose (CMC)) 100 [survivor count not shown], 101 [survivor count not shown], 109 % of control [survivor count not shown]; (dose: 1.0 mg/kg/injection, vehicle: carboxymethylcellulose (CMC)) 98 [survivor count not shown], 110 [survivor count not shown], 132 % of control [survivor count not shown]; (dose: 2.0 mg/kg/injection, vehicle: carboxymethylcellulose (CMC)) 106 [survivor count not shown], 127 [survivor count not shown], 166 % of control [survivor count not shown].
For the compound `ClCCN(CCCl)Cc1nc2ccccc2[nH]1`, the T/C by setting is: under setting [1], 90 % of control [survivor count not shown]; under setting [2], 90 % of control [survivor count not shown]; under setting [3], 92 % of control [survivor count not shown]; under setting [4], 97 % of control [survivor count not shown]; (dose: 20.0 mg/kg/injection, vehicle: carboxymethylcellulose (CMC)) 109 % of control [survivor count not shown]; (dose: 40.0 mg/kg/injection, vehicle: carboxymethylcellulose (CMC)) 106 % of control [survivor count not shown].

For the origin of these results see PubChem BioAssay AID306 (DTP/NCI, 2004).
